Data taken from the supplement of paper PMC8728848.
This is one part of the list.

Tests used:
Assay in all cases: glycan array binding signal (z-score within array); higher = stronger binding
Conditions in all cases: glycan notation: IUPAC condensed, linker removed
[1] = biological target: Fuc(a1-2)Gal6S(b1-3)GlcNAc6S
How it was run: (§1)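 Arrays were curated from the Consortium for Functional Glycomics database, 3228 in total, and kept only where the protein sequence was available. Binding is expressed as a within-array Z-score. This score was averaged across arrays of the same protein sequence at different concentrations or buffers and across linkers, and negative values can be read as non-binding.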

[2] = biological target: Fuc(a1-2)Gal6S(b1-4)Glc
How it was run: as §1

[3] = biological target: Fuc(a1-2)Gal6S(b1-4)Glc6S
How it was run: as §1

[4] = biological target: Fuc(a1-2)[Gal(a1-3)]Gal
How it was run: as §1

[5] = biological target: Fuc(a1-2)[Gal(a1-3)]Gal(b1-3)GalNAc
How it was run: as §1

[6] = biological target: Fuc(a1-2)[Gal(a1-3)]Gal(b1-3)GalNAc(b1-3)Gal(a1-4)Gal(b1-4)Glc
How it was run: as §1

[7] = biological target: Fuc(a1-2)[Gal(a1-3)]Gal(b1-3)GlcNAc
How it was run: as §1

[8] = biological target: Fuc(a1-2)[Gal(a1-3)]Gal(b1-3)GlcNAc(b1-2)Man(a1-3)[Fuc(a1-2)[Gal(a1-3)]Gal(b1-3)GlcNAc(b1-2)Man(a1-6)]Man(b1-4)GlcNAc(b1-4)GlcNAc
How it was run: as §1

[9] = biological target: Fuc(a1-2)[Gal(a1-3)]Gal(b1-3)GlcNAc(b1-2)Man(a1-3)[Fuc(a1-2)[Gal(a1-3)]Gal(b1-3)GlcNAc(b1-2)Man(a1-6)]Man(b1-4)GlcNAc(b1-4)[Fuc(a1-6)]GlcNAc
How it was run: as §1

[10] = biological target: Fuc(a1-2)[Gal(a1-3)]Gal(b1-3)GlcNAc(b1-3)GalNAc
How it was run: as §1

[11] = biological target: Fuc(a1-2)[Gal(a1-3)]Gal(b1-3)GlcNAc(b1-6)GalNAc
How it was run: as §1

[12] = biological target: Fuc(a1-2)[Gal(a1-3)]Gal(b1-4)Glc
How it was run: as §1

[13] = biological target: Fuc(a1-2)[Gal(a1-3)]Gal(b1-4)GlcNAc
How it was run: as §1

[14] = biological target: Fuc(a1-2)[Gal(a1-3)]Gal(b1-4)GlcNAc(b1-2)Man
How it was run: as §1

[15] = biological target: Fuc(a1-2)[Gal(a1-3)]Gal(b1-4)GlcNAc(b1-2)Man(a1-3)[Fuc(a1-2)[Gal(a1-3)]Gal(b1-4)GlcNAc(b1-2)Man(a1-6)]Man(b1-4)GlcNAc(b1-4)GlcNAc
How it was run: as §1

[16] = biological target: Fuc(a1-2)[Gal(a1-3)]Gal(b1-4)GlcNAc(b1-2)Man(a1-3)[Fuc(a1-2)[Gal(a1-3)]Gal(b1-4)GlcNAc(b1-2)Man(a1-6)]Man(b1-4)GlcNAc(b1-4)[Fuc(a1-6)]GlcNAc
How it was run: as §1

[17] = biological target: Fuc(a1-2)[Gal(a1-3)]Gal(b1-4)GlcNAc(b1-3)GalNAc
How it was run: as §1

[18] = biological target: Fuc(a1-2)[Gal(a1-3)]Gal(b1-4)GlcNAc(b1-3)[Fuc(a1-2)[Gal(a1-3)]Gal(b1-4)GlcNAc(b1-6)]GalNAc
How it was run: as §1

[19] = biological target: Fuc(a1-2)[Gal(a1-3)]Gal(b1-4)GlcNAc(b1-6)GalNAc
How it was run: as §1

[20] = biological target: Fuc(a1-2)[Gal(a1-3)]Gal(b1-4)[Fuc(a1-3)]Glc
How it was run: as §1

[21] = biological target: Fuc(a1-2)[Gal(a1-3)]Gal(b1-4)[Fuc(a1-3)]GlcNAc
How it was run: as §1

[22] = biological target: Fuc(a1-2)[Gal(a1-3)]Gal(b1-4)[Fuc(a1-3)]GlcNAc(b1-3)GalNAc
How it was run: as §1

[23] = biological target: Fuc(a1-2)[Gal(a1-4)]Gal(b1-4)GlcNAc
How it was run: as §1

[24] = biological target: Fuc(a1-2)[GalNAc(a1-3)]Gal
How it was run: as §1

[25] = biological target: Fuc(a1-2)[GalNAc(a1-3)]Gal(b1-3)GalNAc(a1-3)[Fuc(a1-2)]Gal(b1-4)GlcNAc
How it was run: as §1

[26] = biological target: Fuc(a1-2)[GalNAc(a1-3)]Gal(b1-3)GalNAc(b1-3)Gal(a1-4)Gal(b1-4)Glc
How it was run: as §1

[27] = biological target: Fuc(a1-2)[GalNAc(a1-3)]Gal(b1-3)GlcNAc
How it was run: as §1

[28] = biological target: Fuc(a1-2)[GalNAc(a1-3)]Gal(b1-3)GlcNAc(b1-2)Man(a1-3)[Fuc(a1-2)[GalNAc(a1-3)]Gal(b1-3)GlcNAc(b1-2)Man(a1-6)]Man(b1-4)GlcNAc(b1-4)GlcNAc
How it was run: as §1

[29] = biological target: Fuc(a1-2)[GalNAc(a1-3)]Gal(b1-3)GlcNAc(b1-2)Man(a1-3)[Fuc(a1-2)[GalNAc(a1-3)]Gal(b1-3)GlcNAc(b1-2)Man(a1-6)]Man(b1-4)GlcNAc(b1-4)[Fuc(a1-6)]GlcNAc
How it was run: as §1

[30] = biological target: Fuc(a1-2)[GalNAc(a1-3)]Gal(b1-3)GlcNAc(b1-3)GalNAc
How it was run: as §1

[31] = biological target: Fuc(a1-2)[GalNAc(a1-3)]Gal(b1-3)GlcNAc(b1-6)GalNAc
How it was run: as §1

[32] = biological target: Fuc(a1-2)[GalNAc(a1-3)]Gal(b1-4)Glc
How it was run: as §1

[33] = biological target: Fuc(a1-2)[GalNAc(a1-3)]Gal(b1-4)GlcNAc
How it was run: as §1

[34] = biological target: Fuc(a1-2)[GalNAc(a1-3)]Gal(b1-4)GlcNAc(b1-2)Man
How it was run: as §1

[35] = biological target: Fuc(a1-2)[GalNAc(a1-3)]Gal(b1-4)GlcNAc(b1-2)Man(a1-3)[Fuc(a1-2)[GalNAc(a1-3)]Gal(b1-4)GlcNAc(b1-2)Man(a1-6)]Man(b1-4)GlcNAc(b1-4)GlcNAc
How it was run: as §1

[36] = biological target: Fuc(a1-2)[GalNAc(a1-3)]Gal(b1-4)GlcNAc(b1-2)Man(a1-3)[Fuc(a1-2)[GalNAc(a1-3)]Gal(b1-4)GlcNAc(b1-2)Man(a1-6)]Man(b1-4)GlcNAc(b1-4)[Fuc(a1-6)]GlcNAc
How it was run: as §1

[37] = biological target: Fuc(a1-2)[GalNAc(a1-3)]Gal(b1-4)GlcNAc(b1-3)Gal(b1-4)GlcNAc
How it was run: as §1

[38] = biological target: Fuc(a1-2)[GalNAc(a1-3)]Gal(b1-4)GlcNAc(b1-3)Gal(b1-4)GlcNAc(b1-3)Gal(b1-4)GlcNAc
How it was run: as §1

[39] = biological target: Fuc(a1-2)[GalNAc(a1-3)]Gal(b1-4)GlcNAc(b1-3)GalNAc
How it was run: as §1

[40] = biological target: Fuc(a1-2)[GalNAc(a1-3)]Gal(b1-4)GlcNAc(b1-3)[Fuc(a1-2)[GalNAc(a1-3)]Gal(b1-4)GlcNAc(b1-6)]GalNAc
How it was run: as §1

[41] = biological target: Fuc(a1-2)[GalNAc(a1-3)]Gal(b1-4)GlcNAc(b1-6)GalNAc
How it was run: as §1

[42] = biological target: Fuc(a1-2)[GalNAc(a1-3)]Gal(b1-4)[Fuc(a1-3)]GlcNAc
How it was run: as §1

[43] = biological target: Fuc(a1-2)[GalNAc(a1-3)]Gal(b1-4)[Fuc(a1-3)]GlcNAc(b1-3)GalNAc
How it was run: as §1

[44] = biological target: Fuc(a1-2)[GalNAc(a1-4)]Gal(b1-4)GlcNAc
How it was run: as §1

[45] = biological target: Fuc(a1-2)[GalNAc(b1-3)]Gal
How it was run: as §1

B1: SAOUHSC 02783 (Staphylococcus aureus), Q5HD69 (protein)
chain: MIHSKKLTLGICLVLLIILIVGYVIMTKTNGRNAQIKDTFNQTLKLYPTKNLDDFYDKEGFRDQEFKKGDKGTWIVNSEMVIEPKGKDMETRGMVLYINRNTRTTKGYYFISEMTDDSNGRPKDDEKRYPVKMEHNKIIPTKPLPNDKLKKEIENFKFFVQYGNFKDINDYKDGDISYNPNVPSYSAKYQLNNDDYNVQQLRKRYDIPTKQAPKLLLKGDGDLKGSSVGSRSLEFTFVENKEENIYFTDSVQYTPSEDTRYESN
B1 was tested. Which “glycan array binding signal (z-score)” value [1] did it give?
The value was -0.229.

What about the “glycan array binding signal (z-score)” value [2] of the same binder?
The value was -0.739.

And the “glycan array binding signal (z-score)” value [3]?
The value was 0.515.

And the “glycan array binding signal (z-score)” value [4]?
Its value is -0.353.

And the “glycan array binding signal (z-score)” value [5]?
Its value is 0.42.

What about the “glycan array binding signal (z-score)” value [6] of the same binder?
Its value is -0.697.

And the “glycan array binding signal (z-score)” value [7]?
The value was 0.87.

And the “glycan array binding signal (z-score)” value [8]?
Its value is -0.458.

And the “glycan array binding signal (z-score)” value [9]?
Its value is 1.34.

And the “glycan array binding signal (z-score)” value [10]?
Its value is 1.58.

And the “glycan array binding signal (z-score)” value [11]?
The value was -1.1.

What about the “glycan array binding signal (z-score)” value [12] of the same binder?
Its value is -0.235.

What about the “glycan array binding signal (z-score)” value [13] of the same binder?
Its value is -0.392.

What about the “glycan array binding signal (z-score)” value [14] of the same binder?
Its value is -1.04.

And the “glycan array binding signal (z-score)” value [15]?
Its value is 0.768.

What about the “glycan array binding signal (z-score)” value [16] of the same binder?
The value was -1.39.

What about the “glycan array binding signal (z-score)” value [17] of the same binder?
Its value is -0.117.

And the “glycan array binding signal (z-score)” value [18]?
The value was 1.11.

What about the “glycan array binding signal (z-score)” value [19] of the same binder?
The value was -0.997.

And the “glycan array binding signal (z-score)” value [20]?
Its value is -0.221.

And the “glycan array binding signal (z-score)” value [21]?
Its value is 0.669.

And the “glycan array binding signal (z-score)” value [22]?
Its value is -0.796.

What about the “glycan array binding signal (z-score)” value [23] of the same binder?
Its value is 1.07.

And the “glycan array binding signal (z-score)” value [24]?
The value was -0.035.

What about the “glycan array binding signal (z-score)” value [25] of the same binder?
The value was -1.39.

And the “glycan array binding signal (z-score)” value [26]?
The value was -1.

And the “glycan array binding signal (z-score)” value [27]?
The value was -1.19.

And the “glycan array binding signal (z-score)” value [28]?
Its value is -0.629.

What about the “glycan array binding signal (z-score)” value [29] of the same binder?
The value was -0.694.

And the “glycan array binding signal (z-score)” value [30]?
The value was -0.882.

What about the “glycan array binding signal (z-score)” value [31] of the same binder?
The value was 0.779.

And the “glycan array binding signal (z-score)” value [32]?
The value was -0.079.

And the “glycan array binding signal (z-score)” value [33]?
Its value is -0.774.

And the “glycan array binding signal (z-score)” value [34]?
The value was -0.646.

And the “glycan array binding signal (z-score)” value [35]?
Its value is 1.05.

And the “glycan array binding signal (z-score)” value [36]?
The value was -0.573.

What about the “glycan array binding signal (z-score)” value [37] of the same binder?
Its value is -0.188.

And the “glycan array binding signal (z-score)” value [38]?
Its value is -0.515.

And the “glycan array binding signal (z-score)” value [39]?
The value was 0.249.

And the “glycan array binding signal (z-score)” value [40]?
The value was -0.505.

And the “glycan array binding signal (z-score)” value [41]?
Its value is -0.494.

And the “glycan array binding signal (z-score)” value [42]?
The value was 0.512.

And the “glycan array binding signal (z-score)” value [43]?
Its value is -0.705.

And the “glycan array binding signal (z-score)” value [44]?
Its value is -1.89.

And the “glycan array binding signal (z-score)” value [45]?
Its value is 1.08.
